According to the supplement of paper PMC10849652:
This is one part of the list.

Sequences of proteins named here, by UniProt entry; tags and fusion partners are left off. A change or cut given only in a name is not applied to a line headed by its entry.
UniProt O75387: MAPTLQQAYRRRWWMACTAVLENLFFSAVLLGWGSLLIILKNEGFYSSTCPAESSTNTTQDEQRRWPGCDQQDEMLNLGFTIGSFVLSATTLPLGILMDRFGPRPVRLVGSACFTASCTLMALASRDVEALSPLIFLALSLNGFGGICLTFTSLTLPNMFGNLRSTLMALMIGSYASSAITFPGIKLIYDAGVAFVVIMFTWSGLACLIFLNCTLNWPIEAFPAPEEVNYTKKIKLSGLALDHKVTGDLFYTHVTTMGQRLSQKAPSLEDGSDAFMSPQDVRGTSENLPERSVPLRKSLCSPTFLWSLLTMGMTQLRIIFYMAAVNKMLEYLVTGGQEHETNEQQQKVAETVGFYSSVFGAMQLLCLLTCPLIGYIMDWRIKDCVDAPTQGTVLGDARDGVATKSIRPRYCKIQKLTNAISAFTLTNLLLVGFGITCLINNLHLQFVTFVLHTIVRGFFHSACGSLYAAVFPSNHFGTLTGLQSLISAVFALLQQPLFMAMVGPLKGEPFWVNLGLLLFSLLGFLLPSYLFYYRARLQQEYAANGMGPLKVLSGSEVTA
UniProt Q8WU79: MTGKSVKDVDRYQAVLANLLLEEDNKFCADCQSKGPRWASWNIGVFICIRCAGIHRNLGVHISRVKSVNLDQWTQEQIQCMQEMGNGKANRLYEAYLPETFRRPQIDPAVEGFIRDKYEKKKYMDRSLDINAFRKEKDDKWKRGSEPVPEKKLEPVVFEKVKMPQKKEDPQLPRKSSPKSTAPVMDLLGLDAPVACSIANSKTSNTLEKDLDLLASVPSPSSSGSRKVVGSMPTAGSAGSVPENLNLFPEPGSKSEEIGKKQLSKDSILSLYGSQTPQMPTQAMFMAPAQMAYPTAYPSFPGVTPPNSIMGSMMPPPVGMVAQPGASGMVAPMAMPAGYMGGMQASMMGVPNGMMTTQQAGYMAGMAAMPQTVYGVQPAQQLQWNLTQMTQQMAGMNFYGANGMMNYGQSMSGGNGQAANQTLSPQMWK
UniProt Q86VD7: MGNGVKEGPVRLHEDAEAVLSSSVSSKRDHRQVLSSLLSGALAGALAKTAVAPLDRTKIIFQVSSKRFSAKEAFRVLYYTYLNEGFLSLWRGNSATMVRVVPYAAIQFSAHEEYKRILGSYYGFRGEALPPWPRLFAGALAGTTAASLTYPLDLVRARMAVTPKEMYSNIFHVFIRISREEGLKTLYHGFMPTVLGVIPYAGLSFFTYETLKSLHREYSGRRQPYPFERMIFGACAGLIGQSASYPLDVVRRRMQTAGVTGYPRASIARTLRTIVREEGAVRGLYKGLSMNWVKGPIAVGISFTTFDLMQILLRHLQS
UniProt Q00325: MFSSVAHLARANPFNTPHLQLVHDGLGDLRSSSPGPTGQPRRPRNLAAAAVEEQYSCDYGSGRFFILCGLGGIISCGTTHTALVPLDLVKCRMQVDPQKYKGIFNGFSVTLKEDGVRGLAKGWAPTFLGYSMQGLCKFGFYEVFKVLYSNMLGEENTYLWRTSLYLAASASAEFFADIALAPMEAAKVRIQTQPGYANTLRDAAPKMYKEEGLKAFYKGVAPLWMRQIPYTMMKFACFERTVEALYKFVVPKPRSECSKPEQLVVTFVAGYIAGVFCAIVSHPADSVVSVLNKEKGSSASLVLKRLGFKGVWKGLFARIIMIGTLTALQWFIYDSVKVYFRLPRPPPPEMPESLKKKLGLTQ
UniProt Q9UBX3: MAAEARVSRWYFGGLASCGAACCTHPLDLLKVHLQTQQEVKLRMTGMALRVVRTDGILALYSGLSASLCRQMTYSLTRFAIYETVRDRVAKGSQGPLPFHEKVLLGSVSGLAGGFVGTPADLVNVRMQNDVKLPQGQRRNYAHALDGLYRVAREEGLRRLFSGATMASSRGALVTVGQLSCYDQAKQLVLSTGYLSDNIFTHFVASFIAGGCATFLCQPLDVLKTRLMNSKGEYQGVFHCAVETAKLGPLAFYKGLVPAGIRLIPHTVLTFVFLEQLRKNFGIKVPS
UniProt Q01650: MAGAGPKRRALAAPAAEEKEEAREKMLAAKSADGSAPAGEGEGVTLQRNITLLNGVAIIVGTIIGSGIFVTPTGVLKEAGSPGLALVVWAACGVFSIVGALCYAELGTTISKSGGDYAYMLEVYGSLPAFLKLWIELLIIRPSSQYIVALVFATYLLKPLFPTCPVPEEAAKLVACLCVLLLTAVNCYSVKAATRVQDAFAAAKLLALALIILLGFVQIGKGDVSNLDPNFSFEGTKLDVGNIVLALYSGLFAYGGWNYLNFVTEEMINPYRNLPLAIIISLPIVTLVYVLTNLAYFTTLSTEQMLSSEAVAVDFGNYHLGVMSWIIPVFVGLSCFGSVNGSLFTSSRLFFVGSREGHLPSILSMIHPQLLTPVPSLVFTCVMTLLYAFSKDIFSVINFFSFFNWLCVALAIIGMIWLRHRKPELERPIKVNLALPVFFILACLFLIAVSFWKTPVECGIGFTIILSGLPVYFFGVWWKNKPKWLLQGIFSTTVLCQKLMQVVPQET
UniProt Q9Y619: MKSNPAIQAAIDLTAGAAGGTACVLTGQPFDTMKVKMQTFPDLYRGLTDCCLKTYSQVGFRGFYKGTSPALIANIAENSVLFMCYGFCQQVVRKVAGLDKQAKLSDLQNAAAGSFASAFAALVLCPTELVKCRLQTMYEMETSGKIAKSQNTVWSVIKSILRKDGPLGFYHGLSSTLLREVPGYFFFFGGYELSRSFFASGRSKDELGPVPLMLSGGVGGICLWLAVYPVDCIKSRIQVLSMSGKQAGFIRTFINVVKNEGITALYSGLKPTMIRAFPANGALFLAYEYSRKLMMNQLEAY
UniProt Q9Y6M7: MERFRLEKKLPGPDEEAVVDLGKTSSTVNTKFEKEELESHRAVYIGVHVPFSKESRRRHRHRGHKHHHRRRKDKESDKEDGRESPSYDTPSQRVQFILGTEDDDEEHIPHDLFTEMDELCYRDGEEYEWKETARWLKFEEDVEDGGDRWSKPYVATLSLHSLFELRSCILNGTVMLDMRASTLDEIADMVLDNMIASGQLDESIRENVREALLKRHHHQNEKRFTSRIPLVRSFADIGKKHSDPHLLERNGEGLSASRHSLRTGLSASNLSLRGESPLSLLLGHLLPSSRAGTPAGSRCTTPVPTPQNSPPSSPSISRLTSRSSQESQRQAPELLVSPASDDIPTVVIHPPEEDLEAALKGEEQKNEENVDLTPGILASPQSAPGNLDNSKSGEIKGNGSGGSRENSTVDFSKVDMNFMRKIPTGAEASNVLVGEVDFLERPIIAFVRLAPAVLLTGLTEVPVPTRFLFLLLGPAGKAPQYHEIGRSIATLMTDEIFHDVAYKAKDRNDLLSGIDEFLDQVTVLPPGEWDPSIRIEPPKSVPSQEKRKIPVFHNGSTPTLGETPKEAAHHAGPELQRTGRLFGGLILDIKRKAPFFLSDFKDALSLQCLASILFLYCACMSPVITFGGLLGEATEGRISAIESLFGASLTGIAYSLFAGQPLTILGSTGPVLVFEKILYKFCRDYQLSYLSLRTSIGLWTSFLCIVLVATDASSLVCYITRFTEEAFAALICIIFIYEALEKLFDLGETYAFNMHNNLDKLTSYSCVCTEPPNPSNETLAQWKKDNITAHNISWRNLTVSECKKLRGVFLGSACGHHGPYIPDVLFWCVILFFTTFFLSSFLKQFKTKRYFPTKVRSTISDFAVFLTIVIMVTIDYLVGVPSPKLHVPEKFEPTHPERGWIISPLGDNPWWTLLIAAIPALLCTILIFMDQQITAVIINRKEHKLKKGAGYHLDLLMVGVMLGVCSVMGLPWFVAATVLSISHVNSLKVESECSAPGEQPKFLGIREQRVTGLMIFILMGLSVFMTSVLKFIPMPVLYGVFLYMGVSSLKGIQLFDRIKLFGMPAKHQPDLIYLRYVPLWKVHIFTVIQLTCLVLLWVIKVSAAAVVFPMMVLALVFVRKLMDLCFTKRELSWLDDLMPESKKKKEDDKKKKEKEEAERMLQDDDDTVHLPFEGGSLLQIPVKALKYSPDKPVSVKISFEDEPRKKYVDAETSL
UniProt Q96QD8: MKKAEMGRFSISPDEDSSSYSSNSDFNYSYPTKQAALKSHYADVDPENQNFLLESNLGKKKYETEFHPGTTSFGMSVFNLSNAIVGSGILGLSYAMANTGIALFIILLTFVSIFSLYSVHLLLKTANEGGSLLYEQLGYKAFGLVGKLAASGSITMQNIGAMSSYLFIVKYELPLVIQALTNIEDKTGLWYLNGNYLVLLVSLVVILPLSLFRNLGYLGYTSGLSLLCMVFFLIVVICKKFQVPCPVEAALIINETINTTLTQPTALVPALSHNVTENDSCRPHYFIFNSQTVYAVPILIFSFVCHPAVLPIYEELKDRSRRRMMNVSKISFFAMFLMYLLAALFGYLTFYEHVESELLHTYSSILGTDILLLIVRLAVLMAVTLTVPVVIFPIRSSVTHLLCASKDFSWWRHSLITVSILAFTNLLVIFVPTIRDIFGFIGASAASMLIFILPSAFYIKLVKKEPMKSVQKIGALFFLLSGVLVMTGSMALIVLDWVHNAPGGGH
UniProt P48067: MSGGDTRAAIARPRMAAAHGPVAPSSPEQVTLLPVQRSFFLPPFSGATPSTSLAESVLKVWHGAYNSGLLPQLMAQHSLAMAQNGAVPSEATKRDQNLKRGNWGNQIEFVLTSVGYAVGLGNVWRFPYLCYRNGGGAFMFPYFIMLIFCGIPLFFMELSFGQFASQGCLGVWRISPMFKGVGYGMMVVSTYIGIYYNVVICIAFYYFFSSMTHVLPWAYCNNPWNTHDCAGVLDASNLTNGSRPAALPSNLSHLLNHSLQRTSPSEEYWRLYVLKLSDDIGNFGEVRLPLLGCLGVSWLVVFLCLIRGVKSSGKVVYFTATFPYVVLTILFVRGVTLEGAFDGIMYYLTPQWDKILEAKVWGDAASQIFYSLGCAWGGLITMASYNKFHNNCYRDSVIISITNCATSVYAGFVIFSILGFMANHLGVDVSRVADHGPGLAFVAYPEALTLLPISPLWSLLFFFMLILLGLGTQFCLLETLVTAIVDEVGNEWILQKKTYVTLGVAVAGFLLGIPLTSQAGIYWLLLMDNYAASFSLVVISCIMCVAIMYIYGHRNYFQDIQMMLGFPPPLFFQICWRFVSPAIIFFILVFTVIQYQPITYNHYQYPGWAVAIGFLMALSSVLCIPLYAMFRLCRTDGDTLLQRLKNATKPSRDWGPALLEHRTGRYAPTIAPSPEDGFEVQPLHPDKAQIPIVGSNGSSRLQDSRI
UniProt Q96DW6: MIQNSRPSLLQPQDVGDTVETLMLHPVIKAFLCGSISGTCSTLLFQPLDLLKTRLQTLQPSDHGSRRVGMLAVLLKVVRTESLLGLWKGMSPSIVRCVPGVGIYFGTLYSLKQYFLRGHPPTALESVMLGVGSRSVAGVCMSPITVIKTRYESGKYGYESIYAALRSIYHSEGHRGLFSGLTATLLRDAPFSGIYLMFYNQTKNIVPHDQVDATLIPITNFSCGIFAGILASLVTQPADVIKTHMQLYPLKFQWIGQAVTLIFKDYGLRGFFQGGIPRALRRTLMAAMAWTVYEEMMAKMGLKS
UniProt Q6NUK1: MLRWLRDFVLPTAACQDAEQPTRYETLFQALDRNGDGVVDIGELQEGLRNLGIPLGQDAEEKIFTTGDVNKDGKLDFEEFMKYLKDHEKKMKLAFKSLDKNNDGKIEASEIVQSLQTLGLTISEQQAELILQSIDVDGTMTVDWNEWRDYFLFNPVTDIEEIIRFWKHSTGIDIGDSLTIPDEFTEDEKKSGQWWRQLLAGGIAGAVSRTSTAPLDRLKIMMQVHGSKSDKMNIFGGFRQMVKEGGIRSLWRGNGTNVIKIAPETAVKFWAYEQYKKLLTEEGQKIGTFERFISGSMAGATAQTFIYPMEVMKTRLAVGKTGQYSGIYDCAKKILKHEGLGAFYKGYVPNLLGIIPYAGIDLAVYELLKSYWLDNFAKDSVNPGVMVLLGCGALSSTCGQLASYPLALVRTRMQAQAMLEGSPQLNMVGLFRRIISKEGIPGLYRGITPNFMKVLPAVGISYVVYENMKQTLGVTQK
UniProt Q15043: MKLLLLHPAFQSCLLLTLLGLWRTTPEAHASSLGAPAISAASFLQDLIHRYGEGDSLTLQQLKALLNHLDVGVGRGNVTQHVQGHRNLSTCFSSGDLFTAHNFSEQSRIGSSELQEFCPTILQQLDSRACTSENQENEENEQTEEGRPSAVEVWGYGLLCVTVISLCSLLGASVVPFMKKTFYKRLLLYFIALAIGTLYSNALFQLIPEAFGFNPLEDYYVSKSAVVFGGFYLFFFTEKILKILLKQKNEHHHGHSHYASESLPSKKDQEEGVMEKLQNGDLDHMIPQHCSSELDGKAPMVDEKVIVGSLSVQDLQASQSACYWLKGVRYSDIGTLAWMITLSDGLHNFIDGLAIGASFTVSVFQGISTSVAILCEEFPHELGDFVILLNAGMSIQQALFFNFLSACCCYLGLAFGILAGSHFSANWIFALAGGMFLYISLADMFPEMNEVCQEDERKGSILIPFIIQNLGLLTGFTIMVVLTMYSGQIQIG

compound: CN1CC[C@H](c2c(O)cc(O)c3c(=O)cc(-c4ccccc4Cl)oc23)[C@H](O)C1 [alvocidib]; experiment: log2 fold change, soluble protein after heating vs DMSO (PISA); higher = thermal stabilisation; K562 lysate, 10 uM; active = over 0.2 and 3.5 SD of the protein, either way, in both replicates (recomputed)
Procedure, shortened: (§1)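 Following dounce homogenisation of K562 pellets in PBS pH 7.4 with 1 mM MgCl2, crude extract at 1 mg/mL protein was incubated for 30 min with 10 μM compound. Aliquots were then heated for 3 min over 48°C-58°C and pooled, NP-40 was added to 0.5% at 4°C, and soluble protein was recovered as the supernatant at 21,000xg for 90 min. Channel-sum-equalised TMTpro 16plex LC-MS/MS quantified this protein. Each value, from duplicates, is a log-two fold change in thermal stability relative to solvent controls.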

log2 fold change, inactive:
SLC43A1 (UniProt O75387) -0.03
SMARCA2 (UniProt P51531) 0.042
SLC25A25 isoform 3 (UniProt Q6KCM7) 0.014
SLC2A1 (UniProt P11166) 0.035
SLC25A32 (UniProt Q9H2D1) -0.05
SMAP2 (UniProt Q8WU79) 0.017
SLC43A3 isoform 2 (UniProt Q8NBI5) -0.015
SLC25A42 (UniProt Q86VD7) -0.026
SLC35A2 isoform 4 (UniProt P78381) -0.009
SLC25A3 isoform 2 (UniProt Q00325) -0.056
SLC25A10 isoform 2 (UniProt Q9UBX3) -0.009
SLC39A10 (UniProt Q9ULF5) -0.059
SLC6A6 (UniProt P31641) 0.037
SLC30A10 (UniProt Q6XR72) 0.091
SLC4A2 (UniProt P04920) 0.016
SLC2A3 (UniProt P11169) -0.036
SLC7A5 (UniProt Q01650) -0.142
SLC25A15 (UniProt Q9Y619) -0.021
SLC25A37 (UniProt Q9NYZ2) 0.005
SLC4A7 isoform 7 (UniProt Q9Y6M7) 0.053
SLC38A2 (UniProt Q96QD8) -0.034
SLC30A9 (UniProt Q6PML9) 0
SLC38A5 (UniProt Q8WUX1) -0.066
SLC25A36 (UniProt Q96CQ1) 0.024
SLC35B2 (UniProt Q8TB61) 0.003
SLC7A1 (UniProt P30825) -0.013
SLC25A40 (UniProt Q8TBP6) 0.096
SMAP1 isoform 2 (UniProt Q8IYB5) -0.032
SLC33A1 (UniProt O00400) 0.024
SLC25A31 (UniProt Q9H0C2) 0.021
SLC6A9 isoform 2 (UniProt P48067) -0.011
SLC25A38 (UniProt Q96DW6) -0.062
SLC7A6 (UniProt Q92536) -0.085
SLC30A5 (UniProt Q8TAD4) -0.017
SMAD4 (UniProt Q13485) 0.007
SLC6A8 (UniProt P48029) -0.115
SLC25A24 (UniProt Q6NUK1) 0.031
SLC39A14 (UniProt Q15043) 0.014

compound: CN1CCc2c(c3ccccc3n2Cc2ccc(C(=O)NO)cc2)C1 [Tubastatin A]; experiment: as above
Procedure, shortened: as §1

log2 fold change, inactive:
SLC43A1 (UniProt O75387) 0
SMARCA2 (UniProt P51531) -0.025
SLC25A25 isoform 3 (UniProt Q6KCM7) 0.015
SLC2A1 (UniProt P11166) 0.017
SLC25A32 (UniProt Q9H2D1) 0.037
SMAP2 (UniProt Q8WU79) -0.002
SLC43A3 isoform 2 (UniProt Q8NBI5) -0.018
SLC25A42 (UniProt Q86VD7) 0.051
SLC35A2 isoform 4 (UniProt P78381) -0.061
SLC25A3 isoform 2 (UniProt Q00325) 0.038
SLC25A10 isoform 2 (UniProt Q9UBX3) -0.004
SLC39A10 (UniProt Q9ULF5) -0.025
SLC6A6 (UniProt P31641) 0.01
SLC30A10 (UniProt Q6XR72) 0.07
SLC4A2 (UniProt P04920) -0.024
SLC2A3 (UniProt P11169) 0.015
SLC7A5 (UniProt Q01650) 0.012
SLC25A15 (UniProt Q9Y619) -0.054
SLC25A37 (UniProt Q9NYZ2) 0.111
SLC4A7 isoform 7 (UniProt Q9Y6M7) 0.008
SLC38A2 (UniProt Q96QD8) -0.105
SLC30A9 (UniProt Q6PML9) 0.022
SLC38A5 (UniProt Q8WUX1) -0.008
SLC25A36 (UniProt Q96CQ1) -0.047
SLC35B2 (UniProt Q8TB61) -0.002
SLC7A1 (UniProt P30825) -0.009
SLC25A40 (UniProt Q8TBP6) -0.016
SMAP1 isoform 2 (UniProt Q8IYB5) -0.009
SLC33A1 (UniProt O00400) 0.009
SLC25A31 (UniProt Q9H0C2) 0.006
SLC6A9 isoform 2 (UniProt P48067) 0.011
SLC25A38 (UniProt Q96DW6) 0.014
SLC7A6 (UniProt Q92536) 0.055
SLC30A5 (UniProt Q8TAD4) 0.116
SMAD4 (UniProt Q13485) 0.031
SLC6A8 (UniProt P48029) -0.02
SLC25A24 (UniProt Q6NUK1) 0
SLC39A14 (UniProt Q15043) 0.035
